From patent publication US20140363441A1 (priority 2013, published 2014)
Results are given in words; binding and its absence hold for the method and conditions named. Some entries that bind do so weakly or less than the wild type.

Chains of the proteins cited; added tags and fusions are not shown.
UniProt P06821: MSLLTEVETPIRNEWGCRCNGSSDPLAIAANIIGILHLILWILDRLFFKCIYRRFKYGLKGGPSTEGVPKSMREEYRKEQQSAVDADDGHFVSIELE

Key:
[1] = target: influenza A/Puerto Rico/8/34 (PR8) virus particles (M2 protein on the virion) (influenza A virus H1N1 A/Puerto Rico/8/34) (UniProt P06821); assay: ELISA on A/Puerto Rico/8/34 virus
[2] = target: influenza A/Puerto Rico/8/34 (PR8) virus particles (M2 protein on the virion) (influenza A virus H1N1 A/Puerto Rico/8/34) (UniProt P06821); assay: ELISA on virus, crude supernatant
[3] = target: influenza A/Puerto Rico/8/34 (PR8) virus particles (M2 protein on the virion) (influenza A virus H1N1 A/Puerto Rico/8/34) (UniProt P06821); assay: ELISA on coated UV-inactivated A/PR/8/34 virus
[4] = target: influenza A/Puerto Rico/8/34 (PR8) virus particles (M2 protein on the virion) (influenza A virus H1N1 A/Puerto Rico/8/34) (UniProt P06821); assay: ELISA on purified A/Puerto Rico/8/34 virus coated at 10 µg/ml
[5] = target: influenza A/Puerto Rico/8/34 (PR8) virus particles (M2 protein on the virion) (influenza A virus H1N1 A/Puerto Rico/8/34) (UniProt P06821); assay: ELISA on PR8 virus, crude supernatant

Measured: binding

B1: 23K12 (TCN-031) (antibody, V domains shown)
VH: EVQLVESGGGLVQPGGSLRISCAASGFTVSSNYMSWVRQAPGKGLEWVSVIYSGGSTYYADSVKGRFSFSRDNSKNTVFLQMNSLRAEDTAVYYCARCLSRMRGYGLDVWGQGTTVTVS
VL: DIQMTQSPSSLSASVGDRVTITCRTSQSISSYLNWYQQKPGKAPKLLIYAASSLQSGVPSRFSGSGSGTDFTLTISGLQPEDFATYYCQQSYSMPAFGQGTKLEIK
binds: [1] | [2] | [3] | [4] | [5]
